Results are given in words; binding and its absence hold for the method and conditions named. Some entries that bind do so weakly or less than the wild type.
T1: Rsph16 (mouse) (UniProt Q80Y75)
T1 sequence: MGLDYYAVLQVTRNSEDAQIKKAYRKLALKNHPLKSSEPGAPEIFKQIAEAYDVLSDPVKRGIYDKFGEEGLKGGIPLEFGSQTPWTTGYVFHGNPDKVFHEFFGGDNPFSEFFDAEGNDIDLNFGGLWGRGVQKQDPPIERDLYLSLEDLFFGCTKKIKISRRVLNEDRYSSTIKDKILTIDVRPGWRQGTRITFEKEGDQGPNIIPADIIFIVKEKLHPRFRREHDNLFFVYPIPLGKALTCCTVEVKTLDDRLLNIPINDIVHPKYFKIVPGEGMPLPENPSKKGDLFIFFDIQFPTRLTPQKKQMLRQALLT

T2: Rsph3b (mouse) (UniProt Q9DA80)
T2 sequence: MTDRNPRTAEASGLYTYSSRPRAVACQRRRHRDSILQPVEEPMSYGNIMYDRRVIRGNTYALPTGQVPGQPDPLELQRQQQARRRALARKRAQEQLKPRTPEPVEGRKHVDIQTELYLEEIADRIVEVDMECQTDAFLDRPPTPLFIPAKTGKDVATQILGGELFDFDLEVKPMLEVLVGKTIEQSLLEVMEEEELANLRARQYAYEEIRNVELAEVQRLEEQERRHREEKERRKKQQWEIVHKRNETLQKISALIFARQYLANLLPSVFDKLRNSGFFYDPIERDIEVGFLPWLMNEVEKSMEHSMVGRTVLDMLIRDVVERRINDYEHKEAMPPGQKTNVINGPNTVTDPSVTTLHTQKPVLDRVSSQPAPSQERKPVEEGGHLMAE

T3: Rsph9 (mouse) (UniProt Q9D9V4)
T3 sequence: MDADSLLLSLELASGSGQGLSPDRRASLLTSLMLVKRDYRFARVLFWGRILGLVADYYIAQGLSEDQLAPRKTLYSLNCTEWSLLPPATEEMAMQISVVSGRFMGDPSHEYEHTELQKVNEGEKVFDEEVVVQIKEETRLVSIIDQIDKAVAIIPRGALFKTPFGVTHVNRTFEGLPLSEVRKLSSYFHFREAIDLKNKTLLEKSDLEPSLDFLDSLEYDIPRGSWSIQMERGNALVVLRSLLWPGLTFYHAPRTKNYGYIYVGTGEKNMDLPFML

T4: Rsph4a (mouse) (UniProt Q8BYM7)
T4 sequence: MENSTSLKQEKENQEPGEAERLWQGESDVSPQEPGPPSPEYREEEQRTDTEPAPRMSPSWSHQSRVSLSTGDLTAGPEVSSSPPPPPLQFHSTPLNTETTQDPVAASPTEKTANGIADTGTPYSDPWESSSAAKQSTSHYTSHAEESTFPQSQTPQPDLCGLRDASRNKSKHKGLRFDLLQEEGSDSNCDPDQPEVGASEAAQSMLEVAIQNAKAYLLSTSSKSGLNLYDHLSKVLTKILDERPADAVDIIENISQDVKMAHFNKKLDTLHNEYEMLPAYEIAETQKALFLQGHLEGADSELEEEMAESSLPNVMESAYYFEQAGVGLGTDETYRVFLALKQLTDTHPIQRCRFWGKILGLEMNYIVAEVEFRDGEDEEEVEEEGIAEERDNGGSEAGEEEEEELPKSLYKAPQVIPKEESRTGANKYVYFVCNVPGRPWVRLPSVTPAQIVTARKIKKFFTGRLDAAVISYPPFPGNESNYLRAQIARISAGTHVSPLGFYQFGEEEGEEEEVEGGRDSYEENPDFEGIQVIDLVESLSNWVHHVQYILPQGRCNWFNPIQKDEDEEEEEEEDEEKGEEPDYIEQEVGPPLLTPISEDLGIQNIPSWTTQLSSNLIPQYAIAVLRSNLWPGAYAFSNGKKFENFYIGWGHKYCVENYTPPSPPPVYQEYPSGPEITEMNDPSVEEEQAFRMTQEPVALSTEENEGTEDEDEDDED


Experiments:
Rsph16 (mouse) [1] = molecular target: T1, Rsph16 (mouse); assay: cryo-EM structure
Rsph3b (mouse) = molecular target: T2, Rsph3b (mouse); assay: cryo-EM structure
Rsph9 (mouse) = molecular target: T3, Rsph9 (mouse); assay: cryo-EM structure
Rsph16 (mouse) [2] = molecular target: T1, Rsph16 (mouse); assay: cross-linking
Rsph4a (mouse) = molecular target: T4, Rsph4a (mouse); assay: cryo-EM structure

binding (Rsph16 (mouse) [1])	binding (Rsph3b (mouse))	Binder	also measured
binds	binds	Rsph23 (protein, UniProt Q99MH5 1-211) MEVSMPLPQIYVEKTLALIKPDVVDKEEEIQDIILGSGFTIIQRRKLHLSPEHCSNFYVEQYGKMFFPNLTAYMSSGPLVAMILARHKAISYWKELMGPSNSLVAKETHPDSLRAIYGTDELRNALHGSNDFAASEREIRFMFPAVIIEPIPIGQAAKDYINLYVAPTLLQGLTELCKEKPPDPYLWLADWLMKNNPNKPKLCHFPVTEEP	
	binds	Rsph4a (protein, UniProt Q8BYM7 1-716) MENSTSLKQEKENQEPGEAERLWQGESDVSPQEPGPPSPEYREEEQRTDTEPAPRMSPSWSHQSRVSLSTGDLTAGPEVSSSPPPPPLQFHSTPLNTETTQDPVAASPTEKTANGIADTGTPYSDPWESSSAAKQSTSHYTSHAEESTFPQSQTPQPDLCGLRDASRNKSKHKGLRFDLLQEEGSDSNCDPDQPEVGASEAAQSMLEVAIQNAKAYLLSTSSKSGLNLYDHLSKVLTKILDERPADAVDIIENISQDVKMAHFNKKLDTLHNEYEMLPAYEIAETQKALFLQGHLEGADSELEEEMAESSLPNVMESAYYFEQAGVGLGTDETYRVFLALKQLTDTHPIQRCRFWGKILGLEMNYIVAEVEFRDGEDEEEVEEEGIAEERDNGGSEAGEEEEEELPKSLYKAPQVIPKEESRTGANKYVYFVCNVPGRPWVRLPSVTPAQIVTARKIKKFFTGRLDAAVISYPPFPGNESNYLRAQIARISAGTHVSPLGFYQFGEEEGEEEEVEGGRDSYEENPDFEGIQVIDLVESLSNWVHHVQYILPQGRCNWFNPIQKDEDEEEEEEEDEEKGEEPDYIEQEVGPPLLTPISEDLGIQNIPSWTTQLSSNLIPQYAIAVLRSNLWPGAYAFSNGKKFENFYIGWGHKYCVENYTPPSPPPVYQEYPSGPEITEMNDPSVEEEQAFRMTQEPVALSTEENEGTEDEDEDDED	binding (Rsph9 (mouse)): binds
		Rsph10b (protein, UniProt E9PYQ0 1-876) MVKEKKKADKKGDKSARSPSSISDNPEASKQDSNASKQEVAPSAVVPVVETPLKQAPKRDSVQMEQSEEETQYEEPILTKLIVESYEGEKVRGLYEGEGFAVFQGGNTYHGMFSEGLMHGQGTYIWADGLKYEGDFVKNIPMNHGVYTWPDGSTYEGEVTNGMRNGFGMFKCGTQPVSYIGHWCHGKRHGKGSIYYNQEGTSWYEGDWVYNIKKGWGIRCYKSGNIYEGQWENNMRHGEGRMRWLTTNEEYTGHWEKGIQNGFGTHTWFLKRIPNSQYPLRNEYIGEFVNGFRHGQGKFYYASGAMYEGEWASNKKQGRGRMTFKNGHVYEGLFSNDHIAQFFETEMDYSQSLDRWSDASQRSRQPRGSSVSAVREPETLRKLDGSESRSVLGTSIELDLTLLLDMYPEESQEEEKKQVEYAVLRNITELRRIYCFYSGLGCDHSLDNTFLMTKLHFWRFLKDCRFHHHNITLADMDRVLSVYNGIPIEEIHSPFRTILLRTFLNYLLQLAYYIHHKEFQNRSPSLFLCFTKLMSENIHPHACQVKGHLFSEQQRTLYSMNYIDKCWEIYTAYCRPNEAPPYELTMKMRYFLWMLKDFRMINKDLTATKFMTVIAEDNPFVYDGTDSNFELELVFLEFFEALLCFSLCCMFDQMTRSYLKVPYDDITTNRYGSTQTILNQSIHRSPSAITSHDSEVHFSSTKSSLDKIGALPDGKIRQSEPKLKKSLSEDKVSKMNFKTQGRGLVFMSPQGEKYEKPKDEQKEKLNIWVNNLYVFFVSVLFSAYKREEMLKEKVKENQLQEAELAQQRQIENEELEARLNILREEEARKQDFELDITVLKEPSEIPASQPLTPSPPKEDLASIQTSKASPGKKKKK	binding (Rsph16 (mouse) [2]): binds weakly
binds		Rsph9 (protein, UniProt Q9D9V4 1-276) MDADSLLLSLELASGSGQGLSPDRRASLLTSLMLVKRDYRFARVLFWGRILGLVADYYIAQGLSEDQLAPRKTLYSLNCTEWSLLPPATEEMAMQISVVSGRFMGDPSHEYEHTELQKVNEGEKVFDEEVVVQIKEETRLVSIIDQIDKAVAIIPRGALFKTPFGVTHVNRTFEGLPLSEVRKLSSYFHFREAIDLKNKTLLEKSDLEPSLDFLDSLEYDIPRGSWSIQMERGNALVVLRSLLWPGLTFYHAPRTKNYGYIYVGTGEKNMDLPFML	
		Rsph1 (protein, UniProt Q8VIG3 1-301) MSDLGSEELEEEGENDLGEYEGERNEVGERHGHGKARLPNGDTYEGSYEFGKRHGQGTYKFKNGARYTGDYVKNKKHGQGTFIYPDGSRYEGEWADDQRHGQGVYYYVNNDTYTGEWFNHQRHGQGTYLYAETGSKYVGTWVHGQQEGAAELIHLNHRYQGKFMNKNPVGPGKYVFDIGCEQHGEYRLTDTERGEEEEEEETLVNIVPKWKALNITELALWTPTLSEEQPPPEGQGQEEPQGLTGVGDPSEDIQAEGFEGELEPRGADEDVDTFRQESQENSYDIDQGNLNFDEEPSDLQD	binding (Rsph4a (mouse)): binds
